# According to patent EP4741413A1, “PEPTIDE HAVING ACTIVITY OF ALLEVIATING DRY EYE DISEASE AND USES THEREOF” (Caregen Co., Ltd., priority 2023, dated 2026):
# Not every detail of the peptide structures is certain; ends, links or a residue may be inferred. Ends that are not written are not given here.
# How the values were obtained:
# PAC1R signaling pathway = PAC1R signaling pathway activation (western blotting of p-PKA and p-CREB); type: cell-based, human
# [1] = test system: Recombinant human PAC1R protein; test: Surface Plasmon Resonance (SPR) analysis of binding to PAC1R
# LS174T [2] = test: Expression level of MUC5AC protein (ELISA); type: cell-based, human; conditions: peptide 10 µM, 50 µM, 100 µM for 24 hours, ELISA of cell lysate
# [3] = test system: dry eye disease model mouse; test: Tear break-up time (TBUT) in dry eye disease mouse model; type: in vivo, C57BL/6 mouse; conditions: for tear break-up time: compared with non-treated group and excipient group; for tear break-up time, significance relative to positive control group: positive control 0.05% Restasis
# [4] = test system: Human corneal epithelial cells; test: Inhibition of inflammation and cell damage induced by IFN-γ (RT-PCR); type: cell-based; conditions: 100 ng/mL IFN-γ, peptide 10 µM, 50 µM, 100 µM for 24 hours
# [5] = test system: Human neuroblastoma cell line SH-SY5Y; test: Neuronal differentiation (GAP43 expression, western blotting); type: cell-based; conditions: peptide 10 µM, 50 µM, 100 µM for 24 hours
# [6] = test system: Aquaporin 5 (AQP5) protein; test: Plasma membrane movement of Aquaporin 5 (AQP5) protein (western blotting); type: cell-based, human; conditions: SH-SY5Y, peptide 10 µM, 50 µM, 100 µM for 1 hour
# [7] = test system: Human corneal epithelial cells; test: Inhibition of inflammation and cell damage induced by UVB (RT-PCR); type: cell-based; conditions: 20 mJ/cm^2 UVB, peptide 10 µM, 50 µM, 100 µM 1 hour before and 24 hours after irradiation
# LS174T [8] = test: Expression level of MUC2 protein (western blotting); type: cell-based, human; conditions: peptide 10 µM, 50 µM, 100 µM for 24 hours
# [9] = test system: dry eye disease model mouse; test: Clinical corneal damage (corneal fluorescein score) in dry eye disease mouse model; type: in vivo, C57BL/6 mouse; conditions: compared with the non-treated group
# LS174T [10] = test: Expression level of mucin genes (RT-PCR); type: cell-based, human; conditions: peptide 10 µM, 50 µM, 100 µM for 4 hours
# [11] = SH-SY5Y, peptide 10 µM, 50 µM, 100 µM for 15 minutes
# [12] = day 11, 50 µM eye drop twice a day
# [13] = day 16, 50 µM eye drop twice a day
sequence,measurement,setting,value
"TLKKNKRFSK [SEQ ID NO: 1, TLKKNKRFSK]",phosphorylation of cAMP response element binding protein (CREB),PAC1R signaling pathway; [11],increased
same,phosphorylation of protein kinase A (PKA),PAC1R signaling pathway; [11],increased
same,mode of action at PAC1R,PAC1R signaling pathway; conclusion from p-PKA/p-CREB western blotting with and without PA8,acted as an agonist for PAC1R
same,binding capacity to PAC1R,[1],has a binding capacity to PAC1R
same,RU value,"[1]; Biacore T200, PAC1R immobilized on CM5 chip, peptide diluted by concentration",increase in RU value in a concentration-dependent manner
same,expression level of MUC5AC (Mucin 5AC) protein,LS174T [2],increased
same,tear break-up time,"[3]; day 6, 50 µM eye drop (5 µL) twice a day",significant level of time extension
same,tear break-up time,"[3]; day 11, 50 µM eye drop (5 µL) twice a day",significant level of time extension
same,"tear break-up time, significance relative to positive control group",[3]; [12],higher significance was observed than the positive control group
same,tear break-up time,"[3]; day 16, 50 µM eye drop (5 µL) twice a day",significant level of time extension
same,"tear break-up time, significance relative to positive control group",[3]; [13],higher significance was observed than the positive control group
same,expression level of COX-2 gene increased by IFN-γ,[4],inhibited
same,expression level of IL-1β gene increased by IFN-γ,[4],inhibited
same,expression level of IL-6 gene increased by IFN-γ,[4],inhibited
same,expression level of MMP3 gene increased by IFN-γ,[4],inhibited
same,expression level of MMP9 gene increased by IFN-γ,[4],inhibited
same,expression level of GAP43,[5],increased in a concentration dependent manner
same,level of AQP5 protein found in the plasma membrane,[6],concentration-dependent increase
same,expression level of COX-2 gene increased by UVB,[7],decreased again
same,expression level of IL-1β gene increased by UVB,[7],decreased again
same,expression level of IL-6 gene increased by UVB,[7],decreased again
same,expression level of MMP3 gene increased by UVB,[7],decreased again
same,expression level of MMP9 gene increased by UVB,[7],decreased again
same,expression level of MUC2 (Mucin 2) protein,LS174T [8],increased
same,corneal fluorescence score,[9]; [12],decreasing trend
same,corneal fluorescence score,[9]; [13],decreased to a significant level
same,expression level of MUC2 (Mucin 2) gene,LS174T [10],increased
same,expression level of MUC5AC (Mucin 5AC) gene,LS174T [10],increased
